Source: US6489103

Target: T1, HaeIII restriction endonuclease (UniProt O68584)
T1 sequence (looked up, limits assumed): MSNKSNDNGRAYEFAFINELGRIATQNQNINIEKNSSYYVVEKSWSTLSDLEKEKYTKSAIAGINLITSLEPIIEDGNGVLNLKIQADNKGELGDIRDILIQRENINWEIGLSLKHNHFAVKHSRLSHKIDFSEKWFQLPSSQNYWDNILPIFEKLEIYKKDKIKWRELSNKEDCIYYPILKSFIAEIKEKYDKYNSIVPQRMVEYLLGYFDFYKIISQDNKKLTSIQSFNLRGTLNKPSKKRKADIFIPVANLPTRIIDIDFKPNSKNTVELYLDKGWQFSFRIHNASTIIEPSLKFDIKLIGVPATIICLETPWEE
Assay: enzyme reaction in vitro
Conditions: unmethylated DNA cleaved, methylated resistant; 37 C, 5 h; KM of HaeIII 6 nM mentioned without measurement; purified native protein; protein details: NEB; label: DIG and biotin on the full 1194 bp fragment

Sequence: AGCTTGCATGCCTGCGGTACCGGCCATGCGCATGGCCTAGCGCATGCGGCCGCTAGCGCG / AATTCGCGCTAGCGGCCGCATGCGCTAGGCCATGCGCATGGCCGGTACCGCAGGCATGCA
- activity on this sequence: active

Tags and fusion partners may be left off the protein sequences shown.
